Laboratory results: patent US20140294773A1
Where a chain is given by its changes, count along the chain named. These are yes or no findings as the source states them, for the method shown. Binding seen in cells or lysates may run through a third protein. Some entries that bind do so weakly or less than the wild type. Where a sequence is shown, tags or fusion partners need not be part of it.

Columns and labels:
[1] = biological target: T1, CascadeΔCse1 with N-terminally Strep-tag II tagged Cse2 (Cse2, Cas7, Cas5, Cas6e) (Escherichia coli str. K-12 substr. MG1655) (UniProt P76632); assay: co-expression and Strep-tag affinity co-purification, SDS-PAGE; J3 crRNA
T1 sequence 1: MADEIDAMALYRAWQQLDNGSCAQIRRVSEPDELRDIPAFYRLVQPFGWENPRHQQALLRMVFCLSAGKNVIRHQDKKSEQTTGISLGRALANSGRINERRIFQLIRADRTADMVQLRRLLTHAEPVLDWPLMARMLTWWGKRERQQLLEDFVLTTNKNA
T1 sequence 2: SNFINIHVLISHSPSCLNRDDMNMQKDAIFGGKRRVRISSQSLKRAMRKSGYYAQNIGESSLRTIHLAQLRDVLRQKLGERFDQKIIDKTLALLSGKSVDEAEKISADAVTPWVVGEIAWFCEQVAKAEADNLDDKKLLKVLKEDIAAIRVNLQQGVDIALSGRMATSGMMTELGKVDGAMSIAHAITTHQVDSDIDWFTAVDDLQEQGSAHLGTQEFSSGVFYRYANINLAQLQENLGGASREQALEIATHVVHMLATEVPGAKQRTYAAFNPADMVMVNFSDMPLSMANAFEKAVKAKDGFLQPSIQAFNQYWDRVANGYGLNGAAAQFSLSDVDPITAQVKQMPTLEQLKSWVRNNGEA
T1 sequence 3: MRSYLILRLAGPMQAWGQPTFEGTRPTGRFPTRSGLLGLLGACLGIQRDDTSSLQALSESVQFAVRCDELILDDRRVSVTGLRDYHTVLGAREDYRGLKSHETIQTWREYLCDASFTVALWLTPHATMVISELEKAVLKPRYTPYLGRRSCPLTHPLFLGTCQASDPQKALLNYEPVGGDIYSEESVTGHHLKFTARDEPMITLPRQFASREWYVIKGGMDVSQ
T1 sequence 4: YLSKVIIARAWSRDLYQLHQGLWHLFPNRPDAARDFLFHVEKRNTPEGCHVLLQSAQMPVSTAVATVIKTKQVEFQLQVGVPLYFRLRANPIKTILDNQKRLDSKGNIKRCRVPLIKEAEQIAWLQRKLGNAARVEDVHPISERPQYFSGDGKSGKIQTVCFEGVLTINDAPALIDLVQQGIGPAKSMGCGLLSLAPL

[2] = biological target: T1, CascadeΔCse1 with N-terminally Strep-tag II tagged Cse2 (Cse2, Cas7, Cas5, Cas6e) (Escherichia coli str. K-12 substr. MG1655); assay: co-expression and Streptactin affinity co-purification, SDS-PAGE; P7 crRNA
[3] = biological target: T1, CascadeΔCse1 with N-terminally Strep-tag II tagged Cse2 (Cse2, Cas7, Cas5, Cas6e) (Escherichia coli str. K-12 substr. MG1655); assay: co-expression and Streptactin affinity co-purification, SDS-PAGE; M13 crRNA

B1: artificial E. coli Cas3-Cse1 fusion protein with the polypeptide linker sequence from S. griseus (protein)
chain: MEPFKYICHYWGKSSKSLTKGNDIHLLIYHCLDVAAVADCWWDQSVVLQNTFCRNEMLSKQRVKAWLLFFIALHDIGKFDIRFQYKSAESWLKLNPATPSLNGPSTQMCRKFNHGAAGLYWFNQDSLSEQSLGDFFSFFDAAPHPYESWFPWVEAVTGHHGFILHSQDQDKSRWEMPASLASYAAQDKQAREEWISVLEALFLTPAGLSINDIPPDCSSLLAGFCSLADWLGSWTTTNTFLFNEDAPSDINALRTYFQDRQQDASRVLELSGLVSNKRCYEGVHALLDNGYQPRQLQVLVDALPVAPGLTVIEAPTGSGKTETALAYAWKLIDQQIADSVIFALPTQATANAMLTRMEASASHLFSSPNLILAHGNSRFNHLFQSIKSRAITEQGQEEAWVQCCQWLSQSNKKVFLGQIGVCTIDQVLISVLPVKHRFIRGLGIGRSVLIVDEVHAYDTYMNGLLEAVLKAQADVGGSVILLSATLPMKQKQKLLDTYGLHTDPVENNSAYPLINWRGVNGAQRFDLLAHPEQLPPRFSIQPEPICLADMLPDLTMLERMIAAANAGAQVCLICNLVDVAQVCYQRLKELNNTQVDIDLFHARFTLNDRREKENRVISNFGKNGKRNVGRILVATQVVEQSLDVDFDWLITQHCPADLLFQRLGRLHRHHRKYRPAGFEIPVATILLPDGEGYGRHEHIYSNVRVMWRTQQHIEELNGASLFFPDAYRQWLDSIYDDAEMDEPEWVGNGMDKFESAECEKRFKARKVLQWAEEYSLQDNDETILAVTRDGEMSLPLLPYVQTSSGKQLLDGQVYEDLSHEQQYEALALNRVNVPFTWKRSFSEVVDEDGLLWLEGKQNLDGWVWQGNSIVITYTGDEGMTRVIPANPKGDPTNRAKGLEAVSVASMNLLIDNWIPVRPRNGGKVQIINLQSLYCSRDQWRLSLPRDDMELAALALLVCIGQIIAPAKDDVEFRHRIMNPLTEDEFQQLIAPWIDMFYLNHAEHPFMQTKGVKANDVTPMEKLLAGVSGATNCAFVNQPGQGEALCGGCTAIALFNQANQAPGFGGGFKSGLRGGTPVTTFVRGIDLRSTVLLNVLTLPRLQKQFPNESHTENQPTWIKPIKSNESIPASSIGFVRGLFWQPAHIELCDPIGIGKCSCCGQESNLRYTGFLKEKFTFTVNGLWPHPHSPCLVTVKKGEVEEKFLAFTTSAPSWTQISRVVVDKIIQNENGNRVAAVVNQFRNIAPQSPLELIMGGYRNNQASILERRHDVLMFNQGWQQYGNVINEIVTVGLGYKTALRKALYTFAEGFKNKDFKGAGVSVHETAERHFYRQSELLIPDVLANVNFSQADEVIADLRDKLHQLCEMLFNQSVAPYAHHPKLISTLALARATLYKHLRELKPQGGPSNG
In the case of B1, the binding [1] is reported as “binds”.

B2: FokI-(Sharkey-KKR)-Cse1 (protein)
chain: MAQLVKSELEEKKSELRHKLKYVPHEYIELIEIARNPTQDRILEMKVMEFFMKVYGYRGEHLGGSRKPDGAIYTVGSPIDYGVIVDTKAYSGGYNLPIGQADEMQRYVKENQTRNKHINPNEWWKVYPSSVTEFKFLFVSGHFKGNYKAQLTRLNRKTNCNGAVLSVEELLIGGEMIKAGTLTLEEVRRKFNNGEINFADPTNRAKGLEAVSVASMNLLIDNWIPVRPRNGGKVQIINLQSLYCSRDQWRLSLPRDDMELAALALLVCIGQIIAPAKDDVEFRHRIMNPLTEDEFQQLIAPWIDMFYLNHAEHPFMQTKGVKANDVTPMEKLLAGVSGATNCAFVNQPGQGEALCGGCTAIALFNQANQAPGFGGGFKSGLRGGTPVTTFVRGIDLRSTVLLNVLTLPRLQKQFPNESHTENQPTWIKPIKSNESIPASSIGFVRGLFWQPAHIELCDPIGIGKCSCCGQESNLRYTGFLKEKFTFTVNGLWPHPHSPCLVTVKKGEVEEKFLAFTTSAPSWTQISRVVVDKIIQNENGNRVAAVVNQFRNIAPQSPLELIMGGYRNNQASILERRHDVLMFNQGWQQYGNVINEIVTVGLGYKTALRKALYTFAEGFKNKDFKGAGVSVHETAERHFYRQSELLIPDVLANVNFSQADEVIADLRDKLHQLCEMLFNQSVAPYAHHPKLISTLALARATLYKHLRELKPQGGPSNG
B2 was tested, and the binding [2] was “binds”.

B3: FokI-(Sharkey-ELD)-Cse1 (protein)
chain: B2 chain with Q105E, K109E, N115D, I118L, R156H, K157I
In the case of B3, the binding [3] is reported as “binds”.
